This passage reports activity, negative = inhibition results from PubChem BioAssay AID1645886 (National Center for Advancing Translational Sciences (NCATS), 2021).

Protein sequences, listed by entry. Tags and fused reporters are not part of them. Lines headed by an entry give the natural chain unless they say otherwise; changes in a name come on top.
UniProt Q8WZA2: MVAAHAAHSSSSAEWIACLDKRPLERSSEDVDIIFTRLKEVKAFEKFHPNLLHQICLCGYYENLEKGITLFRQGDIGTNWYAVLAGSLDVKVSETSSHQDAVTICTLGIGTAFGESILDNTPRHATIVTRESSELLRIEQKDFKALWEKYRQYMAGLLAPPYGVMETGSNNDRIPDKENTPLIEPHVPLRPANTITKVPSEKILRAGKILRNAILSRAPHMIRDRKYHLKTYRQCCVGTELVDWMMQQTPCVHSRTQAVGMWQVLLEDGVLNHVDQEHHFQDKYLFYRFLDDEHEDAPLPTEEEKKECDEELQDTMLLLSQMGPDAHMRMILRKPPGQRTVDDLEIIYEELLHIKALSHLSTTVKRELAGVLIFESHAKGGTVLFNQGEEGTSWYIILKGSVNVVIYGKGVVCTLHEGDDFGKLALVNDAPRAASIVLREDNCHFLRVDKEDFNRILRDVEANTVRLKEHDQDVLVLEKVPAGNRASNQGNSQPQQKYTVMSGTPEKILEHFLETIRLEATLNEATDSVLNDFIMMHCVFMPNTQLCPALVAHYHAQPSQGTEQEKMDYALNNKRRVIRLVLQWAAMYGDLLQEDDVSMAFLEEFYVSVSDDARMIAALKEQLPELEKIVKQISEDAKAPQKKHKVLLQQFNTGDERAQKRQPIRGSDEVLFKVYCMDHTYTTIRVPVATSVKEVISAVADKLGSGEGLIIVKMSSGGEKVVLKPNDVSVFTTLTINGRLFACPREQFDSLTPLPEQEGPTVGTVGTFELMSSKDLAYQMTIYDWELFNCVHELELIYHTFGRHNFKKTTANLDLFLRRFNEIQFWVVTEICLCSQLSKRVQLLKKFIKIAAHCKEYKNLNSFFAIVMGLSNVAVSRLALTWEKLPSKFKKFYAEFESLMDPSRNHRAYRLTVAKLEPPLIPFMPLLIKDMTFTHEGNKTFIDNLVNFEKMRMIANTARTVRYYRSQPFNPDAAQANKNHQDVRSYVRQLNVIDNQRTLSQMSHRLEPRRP

This list holds what a sample rich in hits left over. Results filed as inconclusive are left out. Activity calls are given as the source filed them. Calls follow the shape of the dose curve; as a rule, active = well fitted inhibition curve with a large enough effect; inconclusive = small, poorly fitted or top-dose-only effect; inactive = no such curve, though single readings can be large or run the other way.

The target of this assay is Rap guanine nucleotide exchange factor 4 (Homo sapiens) (UniProt Q8WZA2). Nature of the assay: Validation qHTS for antagonist of cAMP-regulated guanine nucleotide exchange factor 4 (EPAC2).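 Also: 100% = activation by cAMP agonist control; nearly all actives have a fitted effect of over 40% in size.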 The note with it: EPAC2 Rap1B BODIPY-GDP exchange, fluorescence; at 112 µM (top of the series). From the text: Principle Investigator: Xiaodong Cheng Ph.D. The University of Texas Medical Branch, […], TX MLPCN Grant: NS066510 In multi-cellular eukaryotic organisms, the effects of cAMP are transduced by two ubiquitously-expressed intracellular cAMP receptors, the classic protein kinase A/cAMP-dependent protein kinase (PKA/cAPK) and the more recently discovered exchange protein directly activated by cAMP/cAMP-regulated guanine nucleotide exchange factor (EPAC/cAMP-GEF). Both PKA and EPAC are ubiquitously expressed in all tissues, and an increase in intracellular cAMP levels will lead to the activation of both PKA and EPAC. […] This qHTS will be used to screen the Molecular Libraries Small Molecule Repository (MLSMR) as a concentration-titration series using the NCGC unique quantitative screening (qHTS) platform to find activators for EPAC1. […] Activators are identified by monitoring the change in fluorescence signal as the exchanged free BODIPY-GDP has a reduced fluorescence compared to Rap1-bound BODIPY-GDP. […]
Briefly, three uL of reagents (100 nM EPAC2, 250 nM RAP1B-BODIPY-GDP, 50 uM GDP) were dispensed into a 1536-well Greiner black solid-bottom medium binding assay plate. […] The assay plates were read at 5 minute intervals for 30 minutes in the ViewLux plate reader using 480nm excitation and 540nm emission filters. […]
On to `CC(C)(C)c1ccc(O)cc1`, for which the activity, negative = inhibition was inactive: -25.1%.
